Laboratory results: paper PMC7594292, “Two conformations of DNA polymerase D-PCNA-DNA, an archaeal replisome complex, revealed by cryo-electron microscopy” (BMC Biology, 2020)
Results are given in words; binding and its absence hold for the method and conditions named. Binding calls can cover weak binding; strength is not graded here.

Assays:
[1] = target: T1, Thermococcus kodakarensis proliferating cell nuclear antigen PCNA1 (TkoPCNA), homotrimer (Thermococcus kodakarensis) (UniProt Q5JF32); assay: cryo-EM structure; PolD-PCNA-primed DNA complex reconstituted from purified proteins without Mg2+ and isolated by gel filtration; Form A with DNA (25/35) at 6.9 Å, Form A and Form B with DNA (30/45); crystal structures and homology models fitted; both purified
T1 sequence: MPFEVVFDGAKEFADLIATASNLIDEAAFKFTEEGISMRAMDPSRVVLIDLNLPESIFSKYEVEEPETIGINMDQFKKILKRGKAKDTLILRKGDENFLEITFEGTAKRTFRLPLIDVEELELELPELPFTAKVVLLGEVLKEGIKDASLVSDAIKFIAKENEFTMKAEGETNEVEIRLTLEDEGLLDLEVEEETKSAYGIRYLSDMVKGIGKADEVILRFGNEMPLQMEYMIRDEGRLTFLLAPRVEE

[2] = target: T1, Thermococcus kodakarensis proliferating cell nuclear antigen PCNA1 (TkoPCNA), homotrimer (Thermococcus kodakarensis); assay: SPR; Biacore J; PCNA fixed on a CM5 chip; PolDs at 50-1000 nM flowed 120 s at 30 μl/min, 25 °C; 10 mM HEPES-NaOH pH 7.4, 0.15 M NaCl, 0.1% Tween 20; apparent KD; both purified

binding [1] | binding [2] | Substance
binds | – | DP1, small subunit of Thermococcus kodakarensis PolD
binds | – | DP2, large subunit of Thermococcus kodakarensis PolD
– | binds | PolDΔPIP: PolD with DP2(Δ1314-1324) (Thermococcus kodakarensis) (complex)
